For this assay, the system named is RAW 264.7. In words: cell viability (MTT) relative to vehicle control; higher = more viable cells. To be noted: stimulus: HMGB1 5 ug/ml, 18 h.
The mark [1] stands for this setting: compound concentration: 1 ug/ml.

Counter-ions that a name gives are not always drawn. ± gives the standard deviation of the averaged measurements. Some of the results follow. Many values rest on one well or one pass, so single values are uncertain.

A word on the cell viability: it is a read-out of living cells in per cent, often relative to untreated cells.

For the molecule `Oc1ccc2c3c1O[C@H]1c4[nH]c5c(c4C[C@@]4(O)[C@@H](C2)N(CC2CC2)CC[C@]314)C[C@@]1(O)[C@H]2Cc3ccc(O)c4c3[C@@]1(CCN2CC1CC1)[C@H]5O4` [nor-Binaltorphimine dihydrochloride], for the setting “compound concentration: 3 uM”, the cell viability stood at 115%.
For `COc1ccc2[nH]cc(CCN)c2c1` [O-Methylserotonin hydrochloride], for the setting “compound concentration: 3 uM”, the cell viability was 101%.
`COc1ccc2[nH]cc(CCN)c2c1` [5-Methoxytryptamine]: for the setting “compound concentration: 3 uM”, the cell viability is 100%.
Regarding `C/C=C1/C[N@+]2(C)CC[C@]34C(=C(C=O)[C@H]1C[C@@H]32)Nc1ccccc14`, under setting [1], the cell viability was determined as 104%.
In the case of `Cc1ncc(CNC(=O)N(CCCl)N=O)c(N)n1`, the cell viability (compound concentration: 3 uM) worked out at 117 ± 15%.
The same measure, in the same setting: to `Cc1ncc(CNC(=O)N(CCCl)N=O)c(N)n1` [Nimustine hydrochloride] belongs 109%; to `COC(=O)[C@]1(C)CC[C@]2(C)CC[C@]3(C)C4=CC=C5C(=CC(=O)C(O)=C5C)[C@]4(C)CC[C@@]3(C)[C@@H]2C1`, 10.9%.
On to `CC12CCC3C(CCC4=C(O)C(=O)CCC43C)C1CCC2=O` (stereo unspecified) [4-Androsten-4-ol-3,17-dione], for which, for the setting “compound concentration: 3 uM”, the cell viability came to 103%.
As to `Cc1cc(O)ccc1Cl`, the cell viability (compound concentration: 3 uM) came out at 108%.
Turning to `C=C(C)[C@H]1CN[C@H](C(=O)O)[C@H]1CC(=O)O` [Kainic acid], where the note is “compound concentration: 3 uM”, the cell viability turned out to be 104%.
As to `C=C(C)[C@H]1CN[C@H](C(=O)O)[C@H]1CC(=O)O`, under “compound concentration: 3 uM”, the cell viability was found to be 105%.
Regarding `C[C@@H]1CC[C@@]2(OC1)O[C@H]1[C@@H](O)[C@H]3[C@@H]4CC[C@H]5C[C@@H](O[C@@H]6O[C@H](CO)[C@H](O[C@@H]7O[C@H](CO)[C@@H](O)[C@H](O[C@@H]8OC[C@@H](O)[C@H](O)[C@H]8O)[C@H]7O[C@@H]7O[C@H](CO)[C@H](O)[C@H](O[C@@H]8O[C@H](CO)[C@@H](O)[C@H](O)[C@H]8O)[C@H]7O)[C@H](O)[C@H]6O)[C@H](O)C[C@]5(C)[C@H]4CC[C@]3(C)[C@H]1[C@@H]2C` [Digitonin], the cell viability under setting [1] worked out at 106%.
On to `COc1ccc2c(c1)c(CCN1CCOCC1)c(C)n2C(=O)c1cccc(Cl)c1Cl`, for which, for the setting “compound concentration: 3 uM”, the cell viability stood at 118%.
Same read-out and setting: next, `COc1ccc(CN2CCNCC2)c(OC)c1OC` [Trimetazidine dihydrochloride]: 91.8%.
On the same count and under the same terms, to `COc1ccc(CN2CCNCC2)c(OC)c1OC` belongs 108%; to `c1ccc2c(N3CCNCC3)cccc2c1` [1-(1-Naphthyl)piperazine hydrochloride], 119%.
As to `CC[C@H]1CN2CC[C@H]1C[C@@H]2[C@@H](O)c1ccnc2ccc(OC)cc12`, for the setting “compound concentration: 3 uM”, the cell viability was determined as 109%.
Consider `CC[C@H]1CN2CC[C@H]1C[C@@H]2[C@@H](O)c1ccnc2ccc(OC)cc12` [Hydroquinidine], for which the cell viability under setting [1] was determined as 83.8%.
Turning to `CCCN(CCC)CCc1c[nH]c2ccc(C(N)=O)cc12` [N,N-Dipropyl-5-carboxamidotryptamine maleate], where the note is “compound concentration: 3 uM”, the cell viability turned out to be 99.6%.
Take `O=C(N[C@H]1CN2CCC1CC2)c1ccc(Cl)cc1`: the cell viability (compound concentration: 3 uM) came to 100%.
In the case of `O=[N+]([O-])c1ccc2nc(N3CCNCC3)ccc2c1` [Quipazine, 6-nitro-, maleate], the cell viability (compound concentration: 3 uM) came out at 104%.
The same measure, in the same setting: to `C=C[C@H]1CN2CC[C@H]1C[C@H]2[C@H](OC(=O)OCC)c1ccnc2ccc(OC)cc12` belongs 115%; to `C[C@]12CC[C@H]3[C@@H](CCC4=CC(=O)CC[C@@H]43)[C@@H]1CC[C@@H]2O` [Nandrolone], 83.3%; to `C[C@]12CC[C@H]3[C@@H](CCC4=CC(=O)CC[C@@H]43)[C@@H]1CC[C@@H]2O` [19-Nortestosterone], 103%.
For `C=CCN1C[C@H](C)N([C@H](c2ccc(C(=O)N(CC)CC)cc2)c2cccc(OC)c2)C[C@H]1C`, the cell viability (compound concentration: 3 uM) worked out at 119%.
On to `O=[N+]([O-])O[C@@H]1CO[C@H]2[C@@H]1OC[C@@H]2O` [Isosorbide mononitrate], for which the cell viability (compound concentration: 3 uM) is 95.5%.
Still for that read-out and setting: to `O=[N+]([O-])O[C@@H]1CO[C@H]2[C@@H]1OC[C@@H]2O` belongs 98.3%.
In the case of `CC1=CC(=O)c2c(O)cccc2C1=O` [Plumbagin], the cell viability under setting [1] stood at 91%.
In the case of `CC(Cc1ccc(OCC(=O)O)cc1)NCC(O)c1cccc(Cl)c1` (stereo unspecified), the cell viability (compound concentration: 3 uM) turned out to be 87.2%.
Take `OC1CCCCC1N1CCC(c2ccccc2)CC1` (stereo unspecified): the cell viability (compound concentration: 3 uM) was found to be 103%.
Take `NC(=O)c1ccc(N)nc1`: for the setting “compound concentration: 3 uM”, the cell viability worked out at 98.4%.
Turning to `N[C@@H](Cc1ccc(N(CCCl)CCCl)cc1)C(=O)O` [Melphalan], the cell viability (compound concentration: 3 uM) came to 101 ± 1.6%.
On to `N[C@@H](Cc1ccc(N(CCCl)CCCl)cc1)C(=O)O`, for which the cell viability (compound concentration: 3 uM) is 107 ± 8.5%.
On the same count and under the same terms, to `CC(C)=CCOc1c2occc2cc2ccc(=O)oc12` [Imperatorin] belongs 94.8%.
Take `CC[C@@]1(O)C[C@H](O[C@H]2C[C@H](N(C)C)[C@H](O)[C@H](C)O2)c2c(cc3c(c2O)C(=O)c2c(O)cccc2C3=O)[C@H]1C(=O)OC`: under “compound concentration: 3 uM”, the cell viability was 2.09%.
Turning to `CC(C)N(CCC(C(N)=O)(c1ccccc1)c1ccccn1)C(C)C` (stereo unspecified) [Disopyramide], for the setting “compound concentration: 3 uM”, the cell viability amounted to 99.3 ± 6.1%.
In the case of `CC(C)N(CCC(C(N)=O)(c1ccccc1)c1ccccn1)C(C)C` (stereo unspecified) [Disopyramide phosphate], the cell viability (compound concentration: 3 uM) was found to be 95.8%.
For `CC(C)N(CCC(C(N)=O)(c1ccccc1)c1ccccn1)C(C)C` (stereo unspecified), the cell viability (compound concentration: 3 uM) turned out to be 96.2%.
In the case of `C[C@H](N)[C@H](O)c1ccc(O)c(O)c1` [Levonordefrin], the cell viability (compound concentration: 3 uM) turned out to be 116%.
Turning to `C[C@H](N)[C@H](O)c1ccc(O)c(O)c1`, the cell viability (compound concentration: 3 uM) amounted to 101%.
In the case of `N=C(N)NN` [Aminoguanidine hemisulfate], the cell viability (compound concentration: 3 uM) came to 101%.
As for `N=C(N)NN` [Aminoguanidine hydrochloride], the cell viability (compound concentration: 3 uM) was determined as 104%.
Consider `CN1[C@@H]2CC[C@H]1C[C@@H](OC(=O)[C@H](CO)c1ccccc1)C2` [Hyoscyamine (L)], for which the cell viability (compound concentration: 3 uM) turned out to be 117%.
With `CN1[C@@H]2CC[C@H]1C[C@@H](OC(=O)[C@H](CO)c1ccccc1)C2`, the cell viability (compound concentration: 3 uM) was 104%.
Same read-out and setting: to `CN1[C@@H]2CC[C@H]1C[C@@H](OC(=O)[C@H](CO)c1ccccc1)C2` [L-Hyoscyamine] belongs 100%.
Regarding `Cc1ccc(-c2nc3ccc(C)cn3c2CC(=O)N(C)C)cc1`, the cell viability (compound concentration: 3 uM) was found to be 93.7%.
On to `O.O.O=c1cccc2n1CC1CC2CN(CCO)C1.[Cl][Cu][Cl]` (stereo unspecified), for which the cell viability under setting [1] was 99%.
Turning to `C[C@H](N)CN1CCc2ccc(Br)cc21` [VER-3323 hemifumarate salt], under “compound concentration: 3 uM”, the cell viability was 102%.
Consider `C[C@H]1O[C@H](O[C@H]2[C@H](O)[C@@H](O)[C@@H](O)[C@H](O)[C@@H]2O)[C@@H](N)C[C@@H]1NC(=N)C(=O)O` [Kasugamycin], for which, for the setting “compound concentration: 3 uM”, the cell viability was found to be 107%.
Still for that read-out and setting: next, `O=C1CN=C(c2ccccc2Cl)c2cc([N+](=O)[O-])ccc2N1`: 99.2%; `O=[N+]([O-])c1cc(O)c(O)c([N+](=O)[O-])c1` [3,5-Dinitrocatechol]: 92.6%.

The values above are taken from the supplement of paper PMC3682954.
